Data as given in PubChem BioAssay AID1259308 (NCATS, 2017).
The deposit covers about 59,000 reagents; below is a random part of them. About 1,510 of all reagents (2.6%) were called active. 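Calls use total luciferase alone and ignore viability, so some active siRNAs may act by altering cell number.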 The numbers tell different reagents against one gene apart. Not all columns of the deposit are shown. No sequences are given here.

- Test: 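Candidate targets for better recombinant protein yield in mammalian cells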 (primary screen)
- Cells: human HEK293 embryonic kidney cells stably expressing firefly luciferase (HEK-CMV-Luc2-Hygro)
- Reagents: single siRNA against human genes, 0.8 pmol siRNA per well
- Duration: 72 h
- Detection: 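Luciferase light (ONE-Glo) measured on one replicate plate set and viability (CellTiter-Glo) on the other, scaled to a negative control siRNA, with robust z-scores and luciferase per cell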
- Scale: total luciferase, z-score and total luciferase, % of control: higher = more reporter protein produced
- Hit rule: 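Active when the median/MAD z-score for overall luciferase is greater than 3; a gene was taken forward for validation with new siRNAs if at least two of its three siRNAs passed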
- Calls: active = raised luciferase; inactive = no rise

The opening 2 records, ahead of the listing:
SPACA6 #1 | total luciferase, z-score = 2.38; total luciferase, % of control = 129; outcome = inactive
SPACA6 #2 | total luciferase, z-score = 0.551; total luciferase, % of control = 92.9; outcome = inactive

Main list, from the start:
SPACA6 #1 | total luciferase, z-score = 2.38; total luciferase, % of control = 129; outcome = inactive
SPACA6 #2 | total luciferase, z-score = 0.551; total luciferase, % of control = 92.9; outcome = inactive
SPACA6 #3 | total luciferase, z-score = 2.09; total luciferase, % of control = 123; outcome = inactive
PIGO #1 | total luciferase, z-score = -0.687; total luciferase, % of control = 68.2; outcome = inactive
PIGO #2 | total luciferase, z-score = 0.641; total luciferase, % of control = 94.6; outcome = inactive
PIGO #3 | total luciferase, z-score = 0.193; total luciferase, % of control = 85.7; outcome = inactive
RAF1 #1 | total luciferase, z-score = -0.2; total luciferase, % of control = 77.9; outcome = inactive
RAF1 #2 | total luciferase, z-score = -0.766; total luciferase, % of control = 66.7; outcome = inactive
RAF1 #3 | total luciferase, z-score = -0.418; total luciferase, % of control = 73.6; outcome = inactive
SAMD10 #1 | total luciferase, z-score = -0.152; total luciferase, % of control = 78.9; outcome = inactive
SAMD10 #2 | total luciferase, z-score = 3.92; total luciferase, % of control = 160; outcome = active
SAMD10 #3 | total luciferase, z-score = 0.776; total luciferase, % of control = 97.3; outcome = inactive
SPN #1 | total luciferase, z-score = 0.227; total luciferase, % of control = 86.4; outcome = inactive
SPN #2 | total luciferase, z-score = -1.73; total luciferase, % of control = 47.5; outcome = inactive
SPN #3 | total luciferase, z-score = -1.97; total luciferase, % of control = 42.6; outcome = inactive
GNL1 #1 | total luciferase, z-score = 0.215; total luciferase, % of control = 86.2; outcome = inactive
GNL1 #2 | total luciferase, z-score = -1.33; total luciferase, % of control = 55.4; outcome = inactive
GNL1 #3 | total luciferase, z-score = -1.13; total luciferase, % of control = 59.4; outcome = inactive
NEFM #1 | total luciferase, z-score = -0.0954; total luciferase, % of control = 80; outcome = inactive
NEFM #2 | total luciferase, z-score = 1.29; total luciferase, % of control = 107; outcome = inactive
NEFM #3 | total luciferase, z-score = -1.66; total luciferase, % of control = 48.8; outcome = inactive
